Test results as given in PubChem BioAssay AID504834 (National Center for Advancing Translational Sciences (NCATS), 2011).
Out of some 320,000 compounds screened, about 22,000 (6.9%) were called active. The inconclusive results got no clear call from the source; some entries with a clear call stand among them for comparison. The call rests on the fitted dose curve; in most records, active means well fitted inhibition curve with a large enough effect; inconclusive means small, poorly fitted or top-dose-only effect, or another doubt; inactive means no such curve, though single readings can be large or run the other way. Potencies beside an inconclusive call are fits to weak or partial responses and may not hold up.

Assay: Primary qHTS for delayed death inhibitors of the malarial parasite plastid, 96 hour incubation
Conditions: P. falciparum luciferase reporter growth; series mostly up to 28.7 µM; activity change, negative = inhibition: at the top concentration
Procedure, shortened: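 Two parasite generations (96 h, 37 C, 5% CO2) of compound exposure in infected erythrocytes (0.05% parasitemia, 2% hematocrit). Luciferase-reporter P. falciparum; decreased luminescence indicates inhibited growth, aimed at apicoplast-acting delayed death.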
On the % scale 0 is the no-effect control and ±100 the full control effect; potency means the concentration at half of the fitted maximal effect.

**Q.** For `O=C(Nn1cnc2ccccc2c1=O)c1ccccc1F`, which “activity change, negative = inhibition” value is on record?
**A.** inactive: 0%

**Q.** With `CC(=O)c1ccc(Oc2ccc(C(C)=O)cc2)cc1` as the molecule, how does the Potency read?
**A.** inconclusive: 2.62 µM [inhibitor, full curve, poor fit]

**Q.** Which Potency does the source give for `CCOC(=O)CNC(=O)Nc1nnc(-c2ccc(OCC)cc2)o1` here?
**A.** inconclusive: 11.7 µM [inhibitor, single point]

**Q.** Which Potency does the source give for `COc1ccc(CCNC(=O)CSc2cn(Cc3ccccc3)c3ccccc23)cc1OC` here?
**A.** inconclusive: 16.5 µM [inhibitor, single point]

**Q.** With `CCOC(=O)NC(=O)CN1C(=O)NC(C)(c2ccccc2)C1=O` (configuration not stated) as the molecule, how does the Potency read?
**A.** active: 1.85 µM

**Q.** Which Potency does the source give for `COc1c([N+](=O)[O-])cc(C(=O)NNC(=O)c2ccc(C)cc2)cc1[N+](=O)[O-]` here?
**A.** inconclusive: 8.28 µM [inhibitor, partial curve, poor fit]

**Q.** With `Clc1ccc(C2CC(c3ccccc3)Nc3ncnn32)cc1` (configuration not stated) as the molecule, how does the Potency read?
**A.** inconclusive: 3.29 µM [inhibitor, partial curve, poor fit]

**Q.** Which “activity change, negative = inhibition” value does the source give for `C(=N\N1CCN(Cc2cccc3ccccc23)CC1)/c1cccs1` here?
**A.** inactive: 29.5%

**Q.** With `Cc1ccc(S(=O)(=O)c2c(COC(=O)c3ccc(Cl)cc3)c(-c3ccccc3)nn2C)cc1` as the molecule, how does the Potency read?
**A.** inconclusive: 20.8 µM [inhibitor, partial curve, poor fit]

**Q.** For `COc1ccc(NC(=O)COC(=O)CNC(=O)COc2ccccc2)cc1OC`, which “activity change, negative = inhibition” value is on record?
**A.** inactive: 33.3%

**Q.** Which Potency does the source give for `O=C(c1ccco1)N1CCN(C(=O)C2CC(=O)N(c3ccccc3)C2)CC1` (configuration not stated) here?
**A.** inconclusive: 18.5 µM [inhibitor, single point]

**Q.** Which Potency does the source give for `CCOC(=O)C1=CN(c2cccc(F)c2)C=C(C(=O)OCC)C1c1cc(OC)c(O)c([N+](=O)[O-])c1` here?
**A.** inconclusive: 4.65 µM [inhibitor, partial curve, poor fit]

**Q.** Which “activity change, negative = inhibition” value does the source give for `CCN(CC)CCCNC(=O)c1oc2ccc(S(=O)(=O)N3CC(C)CC(C)C3)cc2c1C` (configuration not stated) here?
**A.** inactive: 1.44%

**Q.** With `CCOC(=O)c1sc(NC(=O)CSc2nnc(C)s2)c(C(=O)OCC)c1C` as the molecule, how does the Potency read?
**A.** inconclusive: 1.31 µM [inhibitor, partial curve, poor fit]

**Q.** Which Potency does the source give for `O=C(CNC(=O)c1cccc(F)c1)N/N=C/c1cc(Br)ccc1OC(=O)/C=C/c1ccco1` here?
**A.** active: 13.1 µM

**Q.** With `CNC(=O)/C=C/c1cccc(C(F)(F)F)c1` as the molecule, how does the “activity change, negative = inhibition” value read?
**A.** inactive: 55.6%

**Q.** Which “activity change, negative = inhibition” value does the source give for `Cc1ccc(N(C(=O)CC2NC(=O)NC2=O)C2(C(=O)NC3CCCC3)CCCCC2)cc1` (configuration not stated) here?
**A.** inactive: 43.8%

**Q.** Which Potency does the source give for `O=S(=O)(NCC(c1cccnc1)N1CCN(c2ccccc2)CC1)c1cccs1` (configuration not stated) here?
**A.** inconclusive: 18.5 µM [inhibitor, single point]

**Q.** For `O=[N+]([O-])c1ccc(CN2CCN(c3ccc4ccccc4n3)CC2)cc1`, which Potency is on record?
**A.** inconclusive: 18.5 µM [inhibitor, single point]

**Q.** With `Cc1cc(NC(=O)COC(=O)c2cc([N+](=O)[O-])ccc2N2CCOCC2)ccc1Br` as the molecule, how does the Potency read?
**A.** inconclusive: 18.5 µM [inhibitor, single point]

**Q.** For `CCn1c(/C=C2\C(=O)N(C)c3ccccc32)nc2ccccc2c1=O`, which Potency is on record?
**A.** inconclusive: 3.29 µM [inhibitor, single point]

**Q.** With `CC(=O)Nc1sc(/C(C#N)=C/c2ccc(Cl)c(Cl)c2)nc1-c1ccc(C)cc1` as the molecule, how does the “activity change, negative = inhibition” value read?
**A.** inactive: -5.97%

**Q.** Which “activity change, negative = inhibition” value does the source give for `CCN1C(=O)C(=O)N(CC(=O)Nc2ccccc2Oc2ccccc2)C1=O` here?
**A.** inactive: 4.38%

**Q.** For `CN(C)CCNC(=O)c1coc(=O)c(Br)c1`, which Potency is on record?
**A.** inconclusive: 13.1 µM [inhibitor, partial curve]

**Q.** For `CC(C)(C)OC(=O)NNC1CC(=O)N(c2ccccc2F)C1=O` (configuration not stated), which Potency is on record?
**A.** inconclusive: 0.117 µM [inhibitor, full curve, poor fit]

**Q.** With `Nc1c(-c2ccccc2)cnn1C1CCS(=O)(=O)C1` (configuration not stated) as the molecule, how does the “activity change, negative = inhibition” value read?
**A.** inactive: -34.8%

**Q.** Which “activity change, negative = inhibition” value does the source give for `Cc1c(C(=O)N2CCN(c3cccc(Cl)c3)CC2)cccc1[N+](=O)[O-]` here?
**A.** inactive: -3.29%

**Q.** For `COc1ccc(NC(=O)C(=O)NCc2ccncc2)c(OC)c1`, which “activity change, negative = inhibition” value is on record?
**A.** inactive: 16.5%

**Q.** With `COc1ccc(C(=O)NCc2ccco2)cc1S(=O)(=O)NC1CC1` as the molecule, how does the “activity change, negative = inhibition” value read?
**A.** inactive: -20.2%

**Q.** For `CC(=O)NS(=O)(=O)c1ccc(NC(=O)c2oc3c(Cl)cccc3c2C)cc1`, which “activity change, negative = inhibition” value is on record?
**A.** inactive: 47.1%

**Q.** With `COc1ccc(S(=O)(=O)N(CC(=O)NC2CC2)Cc2ccccc2)cc1` as the molecule, how does the “activity change, negative = inhibition” value read?
**A.** inactive: 13.4%

**Q.** For `CCCCC(C(=O)NCCC(C)C)N(CCCN1CCOCC1)C(=O)c1snc(C(N)=O)c1N` (configuration not stated), which Potency is on record?
**A.** inconclusive: 3.29 µM [inhibitor, single point]

**Q.** Which Potency does the source give for `CCOC(=O)C1(CCc2ccccc2)CCN(Cc2ccccn2)CC1` here?
**A.** inconclusive: 3.29 µM [inhibitor, single point]

**Q.** With `CCCCCc1ccc(-c2cn(Cc3ccc(C)cc3)nn2)cc1` as the molecule, how does the Potency read?
**A.** inconclusive: 6.57 µM [inhibitor, partial curve, poor fit]

**Q.** With `CCCn1c(N)c(N(CCOC)C(=O)c2cccc(S(=O)(=O)N3CCCc4ccccc43)c2)c(=O)[nH]c1=O` as the molecule, how does the “activity change, negative = inhibition” value read?
**A.** inactive: -10.2%

**Q.** Which Potency does the source give for `COC(=O)CCN(c1ccccc1)S(=O)(=O)c1cc(-c2cc(C)no2)ccc1OC` here?
**A.** active: 10.4 µM

**Q.** For `O=C(O)CN1C(=O)/C(=C/c2cccc(Cl)c2)Oc2ccccc21`, which Potency is on record?
**A.** inconclusive: 18.5 µM [inhibitor, single point]

**Q.** With `S=C(NCc1ccc(Cl)c(Cl)c1)NCc1ccco1` as the molecule, how does the Potency read?
**A.** inconclusive: 18.5 µM [inhibitor, single point]

**Q.** Which “activity change, negative = inhibition” value does the source give for `CN1CCN(C(=O)C2CCC(=O)N(Cc3cccc(C(F)(F)F)c3)C2)CC1` (configuration not stated) here?
**A.** inactive: -21.3%

**Q.** For `COc1cccc(-n2nnnc2SCC(=O)c2cc(OC)ccc2OC)c1`, which Potency is on record?
**A.** active: 11.7 µM

**Q.** Which Potency does the source give for `CC(=O)N1CCc2cc(S(=O)(=O)CCC(=O)NCc3ccc(Cl)cc3)ccc21` here?
**A.** inconclusive: 1.47 µM [inhibitor, partial curve, poor fit]

**Q.** Which “activity change, negative = inhibition” value does the source give for `Cc1ccccc1-n1nnnc1SCc1cc(=O)n2ccsc2n1` here?
**A.** inactive: -23%

**Q.** With `O=C(Nc1ccc(N2CCCCCC2)cc1)c1ccc[nH]1` as the molecule, how does the “activity change, negative = inhibition” value read?
**A.** inactive: -73.4%

**Q.** For `COc1ccccc1Oc1ccccc1[N+](=O)[O-]`, which Potency is on record?
**A.** inconclusive: 0.0415 µM [inhibitor, full curve, poor fit]

**Q.** With `CNC(=O)c1c(Br)cnn1-c1ccc(C)cc1` as the molecule, how does the “activity change, negative = inhibition” value read?
**A.** inactive: 148%

**Q.** With `COc1cccc(CCNC(=O)c2cc(COc3c(F)cccc3F)on2)c1` as the molecule, how does the Potency read?
**A.** inconclusive: 0.415 µM [inhibitor, full curve, poor fit]

**Q.** Which Potency does the source give for `CCCCOC(=O)CSC1=C(C#N)C(c2cccnc2)C(C(=O)OCC)=C(c2ccccc2)N1` (configuration not stated) here?
**A.** inconclusive: 4.15 µM [inhibitor, single point]
